# The list shows a part of the results. These are further read-outs of the screen, such as a control signal, another cell line or another target. No call is given for them. Most of these compounds were active or inconclusive in the main read-out, so they are no random draw. Words in brackets tell the shape of the fitted curve; partial curves, single points and poor fits give uncertain potencies.
# Test: Cell signaling CRE-BLA (Fsk stim)
# Settings: CHO CRE-bla reporter (cAMP response element driving beta-lactamase), forskolin EC10, beta-lactamase ratio; measured here: 460 nm blue channel
# Outline: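 Modulation of forskolin signalling: compounds in titration series added with EC10 NKH 477 to CHO cells carrying a CRE-driven beta-lactamase reporter, 3 h, 37C. CCF4 FRET ratio (460/530 nm, ex 405 nm) gives %activity and AC50.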
row,SMILES,AC50
1,CCN(C(=O)CSc1nc2nc(C)cc(C)n2n1)c1ccccc1,"6.31 µM [rising, partial curve]"
2,Cc1ccc(Cn2nnc3c(=O)n(CC(=O)OCc4ccccc4)cnc32)cc1,"10 µM [rising, single point]"
3,COCCOC(=O)C1=C(C)NC(=O)N(C(C)=O)C1c1ccc(Cl)cc1 (centres undefined),"0.0501 µM [falling, partial curve, poor fit]"
4,CC(C)Cn1cc(C(=O)N2CCOCC2)c2c3ccccc3n(C)c2c1=O,"0.316 µM [falling, partial curve]"
5,CCC(Sc1nc2n[nH]c(C)c2c(=N)n1-c1cccc(Cl)c1)C(=O)NCCOC (centres undefined),"10 µM [rising, partial curve]"
6,CN1CCN(c2ccccc2NC(=O)c2cccc(OCc3ccccc3)c2)CC1,"1 µM [rising, full curve]"
7,Cc1c(NC(=O)C(C)OC(=O)C(NC(=O)c2ccco2)C(C)C)c(=O)n(-c2ccccc2)n1C (centres undefined),"0.398 µM [falling, full curve]"
8,Cc1ccc(S(=O)(=O)NCCSc2nnnn2-c2cc(C)ccc2C)cc1,"5.01 µM [rising, partial curve]"
9,COc1ccc(Nc2cc(C)nc3nc(C)nn23)cc1Cl,"10 µM [rising, partial curve]"
10,COc1ccc(-n2c(=O)cnc3cnc(N4CCOCC4)nc32)cc1,"10 µM [rising, single point]"
11,CCc1nc2nc(C)cc(Nc3cccc(C(F)(F)F)c3)n2n1,"10 µM [rising, partial curve]"
12,N=c1c(C(=O)NCc2ccccc2)cc2c(=O)n3ccccc3nc2n1CCCN1CCOCC1,"12.6 µM [rising, partial curve]"
13,CC1CN(S(=O)(=O)c2cccs2)CC(C)O1 (centres undefined),"0.00398 µM [falling, full curve, poor fit]"
14,COCCn1c(SCc2nc3ccccc3s2)nc2ccccc21,"12.6 µM [rising, single point]"
15,CC1c2[nH]c3ccccc3c2CCN1C(=O)Nc1ccccc1 (centres undefined),"20 µM [falling, single point]"
16,COc1ccc(OC)c(Nc2cc(C)nc3nc(C)nn23)c1,"10 µM [rising, partial curve]"
17,COC(=O)c1cc2c(=O)n3ccccc3nc2n(C)c1=N,"10 µM [rising, partial curve]"
18,Cc1noc(C)c1-c1nccc(Nc2ccc(F)cc2)n1,"3.98 µM [rising, partial curve]"
19,CCCc1cc(N2CCCC(C(=O)Nc3cc(Cl)ccc3OC)C2)n2ncnc2n1 (centres undefined),"12.6 µM [rising, partial curve]"
20,O=C(Nc1ccccc1C(F)(F)F)c1ccc(F)c(S(=O)(=O)N2CCOCC2)c1,"0.501 µM [falling, full curve, poor fit]"
21,COc1ccc(-c2nnc(-c3cccnc3)o2)cc1OC,"10 µM [rising, partial curve]"
22,COc1ccc(-c2cc(C(F)(F)F)n3nc(C(=O)N4CCOCC4)nc3n2)cc1,"12.6 µM [rising, partial curve]"

# 13 entries from above, arranged by molecular weight, ascending:
row,SMILES,AC50
13,CC1CN(S(=O)(=O)c2cccs2)CC(C)O1 (centres undefined),"0.00398 µM [falling, full curve, poor fit]"
21,COc1ccc(-c2nnc(-c3cccnc3)o2)cc1OC,"10 µM [rising, partial curve]"
18,Cc1noc(C)c1-c1nccc(Nc2ccc(F)cc2)n1,"3.98 µM [rising, partial curve]"
9,COc1ccc(Nc2cc(C)nc3nc(C)nn23)cc1Cl,"10 µM [rising, partial curve]"
15,CC1c2[nH]c3ccccc3c2CCN1C(=O)Nc1ccccc1 (centres undefined),"20 µM [falling, single point]"
14,COCCn1c(SCc2nc3ccccc3s2)nc2ccccc21,"12.6 µM [rising, single point]"
3,COCCOC(=O)C1=C(C)NC(=O)N(C(C)=O)C1c1ccc(Cl)cc1 (centres undefined),"0.0501 µM [falling, partial curve, poor fit]"
6,CN1CCN(c2ccccc2NC(=O)c2cccc(OCc3ccccc3)c2)CC1,"1 µM [rising, full curve]"
8,Cc1ccc(S(=O)(=O)NCCSc2nnnn2-c2cc(C)ccc2C)cc1,"5.01 µM [rising, partial curve]"
22,COc1ccc(-c2cc(C(F)(F)F)n3nc(C(=O)N4CCOCC4)nc3n2)cc1,"12.6 µM [rising, partial curve]"
19,CCCc1cc(N2CCCC(C(=O)Nc3cc(Cl)ccc3OC)C2)n2ncnc2n1 (centres undefined),"12.6 µM [rising, partial curve]"
7,Cc1c(NC(=O)C(C)OC(=O)C(NC(=O)c2ccco2)C(C)C)c(=O)n(-c2ccccc2)n1C (centres undefined),"0.398 µM [falling, full curve]"
12,N=c1c(C(=O)NCc2ccccc2)cc2c(=O)n3ccccc3nc2n1CCCN1CCOCC1,"12.6 µM [rising, partial curve]"

# Next results

row,SMILES,AC50
1,CCOc1ccccc1N1C(=O)CC(Nc2ccc(N3CCOCC3)cc2)C1=O (centres undefined),"0.631 µM [rising, full curve, poor fit]"
2,Cc1[nH]c2ccccc2c1C(c1ccccn1)N1CCC(C(N)=O)CC1 (centres undefined),"7.94 µM [falling, partial curve]"
3,CCSc1sccc1C1C(C#N)=C(N)N(c2cccnc2)C2=C1C(=O)CC(C)(C)C2 (centres undefined),"12.6 µM [rising, single point]"
4,CCC1(CC)C(=O)NC(=O)NC1=NCCc1ccc(O)cc1,"0.0251 µM [falling, full curve, poor fit]"
5,O=C(CCS(=O)(=O)c1cccc2nonc12)N1CCCc2ccccc21,"20 µM [falling, partial curve, poor fit]"
6,COc1ccccc1CNc1ncncc1-c1cccc(C#N)c1,"5.01 µM [rising, full curve]"
7,CCc1nc(N2CCCCC2C)c2oc3ccccc3c2n1 (centres undefined),"3.98 µM [rising, partial curve]"
8,Cc1cc(Oc2ccccc2)nc(-c2ccccc2O)n1,"3.16 µM [rising, full curve]"
9,CCOC(=O)C1CCN(C(=O)CCNC(=O)Cn2ccc3ccccc3c2=O)CC1,"0.0501 µM [rising, full curve, poor fit]"
10,COCCSc1nnc(NC(=O)Cc2cccs2)s1,"0.1 µM [falling, partial curve, poor fit]"
11,CCOC(=O)C1(C)NC(c2ccc(N(C)C)cc2)C2C(=O)N(CC)C(=O)C21 (centres undefined),"0.501 µM [falling, full curve, poor fit]"
12,COc1ccccc1NC(=O)N1CCN(c2cc(-c3ccccc3)nc3ncnn23)CC1,"0.126 µM [falling, full curve, poor fit]"
13,COCCn1c(=O)c(-c2cn(C)c3ccccc23)nc2cncnc21,"10 µM [rising, partial curve]"
14,O=S(=O)(CCOc1ccccc1)c1nc2ccccc2[nH]1,"6.31 µM [falling, partial curve]"
15,O=C(Oc1cccc2ccccc12)c1ccco1,"0.00316 µM [falling, full curve, poor fit]"
16,O=C(O)CSc1sc(=S)sc1SCC(=O)O,"0.251 µM [falling, full curve]"
17,Cc1cc2ccccc2n1CCNC(=O)C(C)(C)C,"10 µM [rising, partial curve]"
18,O=C(c1csnn1)N1CCC2(CCCN(Cc3cc(C(F)(F)F)cc(C(F)(F)F)c3)C2)CC1,"3.98 µM [rising, single point]"
19,COc1cccc(-c2cc(C(=O)NCCc3ccccc3)no2)c1,"0.0794 µM [falling, full curve, poor fit]"
20,CCNC(=O)N1c2ccc(OCC)cc2C(C)=CC1(C)C,"25.1 µM [rising, single point]"
21,COCCSc1nnc(NC(=O)CSCc2ccccc2)s1,"15.8 µM [rising, single point]"
22,Cc1ccc(C2NC(=O)c3ccccc3N2)s1 (centres undefined),"10 µM [rising, partial curve]"

# — PubChem BioAssay AID662 (National Center for Advancing Translational Sciences (NCATS), 2007)
